For the series, the system named is human skin excerpts. Description: Labelling of human skin excerpts by caged haptens (bromobimanes). Particulars: fluorescence after uncaging.

`Cc1c(CBr)n2c(CBr)c(C)c(=O)n2c1=O` [dBBr, dibromobimane]: the “skin layers labeled by the caged hapten” value is reported as “in addition to the stratum corneum; cells in the basal layer are labeled”.
For the compound `Cc1c(C)n2c(CBr)c(C)c(=O)n2c1=O` [mBBr], the “skin layers labeled by the caged hapten” value is recorded as “in addition to the stratum corneum; cells in the basal layer are labeled”.

The values above are taken from patent US20110243993A1, “Method for diagnosing and creating immunogenic tolerance in contact allergy and other epithelial immunotoxicological ailments” (priority 2010, published 2011).
